This note sets out measurements from PubChem BioAssay AID1487 (National Center for Advancing Translational Sciences (NCATS), 2009).

Molecules are shown by their SMILES. The list shows a part of the results. Shown are side measurements of this screen, not its main read-out; they come without a call. Most of these compounds were active or inconclusive in the main read-out, so they are no random draw. Words in brackets tell the shape of the fitted curve; partial curves, single points and poor fits give uncertain potencies.

The term AC50 denotes the midpoint of the concentration-response curve, whichever way the signal moves.

The assay in a line: qHTS Assay for Modulators of Lamin A Splicing. To be noted: HeLa LMNA splicing GFP/RFP minigene ratio, 48 h. The procedure, abridged:
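S3 HeLa stable clones carrying a lamin A-EGFP splicing minigene plus DsRed2 were seeded at 600 cells/well in Opti-MEM with 2% FBS, pin-dosed and incubated 48 h at 37°C. Acumen cytometry (488 nm) gave the GFP/RFP total-intensity ratio.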
In general terms: Quantitative high-throughput screening tests each substance at several concentrations.

Setting [1] is: measured here: GFP splicing reporter channel.
[2] abbreviates: measured here: RFP viability control channel.

On to `COc1ccc(O)c(/C=N/NC(=O)CSc2nnc(C)n2-c2ccccc2)c1`, for which the AC50 under setting [1] is 35.5 µM [falling, single point].

As to `CC1=Nc2ccccc2/C1=C\c1nc(-c2ccc(C(F)(F)F)cc2)oc1O`, the AC50 is 35.5 µM [falling, single point] under setting [1] and 12.6 µM [falling, partial curve] under setting [2].

For `O=C(c1ccc(S(=O)(=O)Nc2ccc(F)cc2)cc1)N1CCN(C(=O)c2ccco2)CC1`, the AC50 under setting [2] was 10 µM [rising, partial curve].

Take `Cc1c(N/N=C(\C#N)C(=O)c2ccc(Cl)cc2)c(=O)n(-c2ccccc2)n1C`: the AC50 under setting [2] is 8.91 µM [rising, single point].

Take `O=C1c2ccccc2C(Nc2ccc(-c3nc4ccccc4[nH]3)cc2)N1Cc1ccco1` (stereo not given): the AC50 under setting [2] was 14.1 µM [rising, partial curve].

For `Cc1cc2[nH]c3ccccc3c2c(C)n1`, the AC50 under setting [2] is 35.5 µM [rising, single point].

`Nc1cccc(S(=O)(=O)c2cccc(N)c2)c1`: the AC50 under setting [1] was 3.55 µM [falling, single point] and the concentration at half-maximal activity (AC50) under setting [2] was 3.16 µM [falling, single point].

As for `S=C(c1cn(Cc2ccc(Br)cc2)c2ccccc12)N1CCOCC1`, the AC50 under setting [2] was 35.5 µM [rising, single point].

In the case of `CN(Cc1nc(-c2ccncc2)no1)S(=O)(=O)c1ccc(Cl)cc1`, the AC50 under setting [2] is 25.1 µM [rising, single point].

Regarding `COc1ccc(S(=O)(=O)Nc2cccc(N(C)S(C)(=O)=O)c2)cc1C`, the AC50 under setting [2] is 11.2 µM [rising, partial curve].

For the compound `COc1ccc(NC(=O)c2ccc(Br)o2)cc1`, the AC50 was 1.58 µM [falling, partial curve] under setting [1] and 1.58 µM [falling, partial curve, poor fit] under setting [2].

In the case of `Cc1c(Cl)cccc1NC(=O)c1cc(-c2ccccc2O)n[nH]1`, the AC50 under setting [2] is 20 µM [rising, single point].

Turning to `CCCCC1(Cc2ccc([N+](=O)[O-])cc2)C(=O)N(c2ccccc2)N(c2ccccc2)C1=O`, the AC50 under setting [2] was 8.91 µM [rising, partial curve].

`Cn1c(SCC(=O)Nc2ccccc2F)nc2c([nH]c3ccccc32)c1=O`: the AC50 under setting [1] was 35.5 µM [falling, partial curve].

As to `CCOc1ccccc1C(=O)NC(C(=O)Nc1ccccc1N1CCOCC1)C(C)C` (stereo not given), the AC50 is 35.5 µM [rising, single point] under setting [1] and 35.5 µM [rising, single point] under setting [2].

On to `Cc1occc1C(=O)Nc1ccc2ccccc2c1`, for which the AC50 is 12.6 µM [rising, single point] under setting [1] and 17.8 µM [rising, single point] under setting [2].

Turning to `O=C1CCC/C(=N/Nc2ccc(Cl)cc2)C1`, under setting [2], the AC50 was 4.47 µM [rising, full curve].

For `Cc1ccccc1C(=O)c1cccn1CC(=O)N1CCCCCC1`, the AC50 runs as follows: under setting [1], 3.16 µM [falling, single point]; under setting [2], 5.62 µM [falling, single point].

Consider `COc1cccc(N2CCN(CC(=O)Nc3nnc(-c4ccccc4)s3)CC2)c1`, for which the AC50 reads like this: under setting [1], 15.8 µM [rising, single point]; under setting [2], 17.8 µM [rising, partial curve].

Consider `CSc1nnnn1CCn1nnnc1SC`, for which, under setting [2], the AC50 was 0.02 µM [falling, full curve, poor fit].

`COc1cccc(OCc2cc(C3Nc4ccccc4C(=O)N3Cc3ccco3)ccc2OC)c1` (stereo not given): under setting [2], the AC50 is 10 µM [rising, partial curve].

Consider `COc1ccc(C(=O)O)cc1F`, for which the AC50 runs as follows: under setting [1], 5.01 µM [falling, partial curve, poor fit]; under setting [2], 0.891 µM [falling, partial curve, poor fit].

In the case of `COc1cccc(/C=C/C(=O)OCC(=O)c2cc(C)n(CC3CCCO3)c2C)c1OC` (stereo not given), under setting [2], the AC50 is 22.4 µM [rising, single point].

`CC1=C(C(=O)OCc2ccccc2)C(c2cccnc2)n2nnnc2N1` (stereo not given): the AC50 was 14.1 µM [rising, partial curve] under setting [1] and 15.8 µM [rising, single point] under setting [2].

Turning to `Cc1cccc(-c2ncc(CN3CCCC(CO)(Cc4cccc(Cl)c4)C3)cn2)c1` (stereo not given), the AC50 under setting [1] is 25.1 µM [rising, partial curve, poor fit] and the AC50 under setting [2] is 7.94 µM [rising, partial curve, poor fit].

Consider `COc1ccc(N/C=C(\C(C)=O)c2ccc(OC)c(OC)c2)cc1OC`, for which the AC50 is, setting by setting: under setting [1], 0.447 µM [falling, partial curve, poor fit]; under setting [2], 6.31 µM [falling, full curve, poor fit].

As for `O=C1CC(C2CCCO2)C(=O)N1c1cccc(Cl)c1` (stereo not given), the AC50 was 3.16 µM [rising, single point] under setting [1] and 2.82 µM [rising, single point] under setting [2].

Consider `CCOc1cccc(/C=N/NC(=S)Nc2cc(S(=O)(=O)N3CCOCC3)ccc2N2CCOCC2)c1O`, for which the AC50 by setting is: under setting [1], 1.41 µM [rising, full curve]; under setting [2], 17.8 µM [rising, partial curve].

As to `O=C(CCCn1c(=S)[nH]c2ccccc2c1=O)NC1CCCC1`, the AC50 under setting [2] is 5.62 µM [rising, single point].

Consider `CC(C)(C)Nc1nc(SCc2ccccc2)nc(N2CCOCC2)n1`, for which the AC50 under setting [2] is 25.1 µM [rising, single point].

`COc1ccc(-c2nnc(SCc3nnc(-c4ccc(Cl)cc4)o3)n2-c2ccccc2)cc1`: the half-maximal activity concentration (AC50) by setting is: under setting [1], 4.47 µM [rising, single point]; under setting [2], 20 µM [rising, single point].

Turning to `O=C(COn1nnc2ccc(C(F)(F)F)cc21)Nc1nnc(-c2ccccc2)o1`, under setting [2], the AC50 is 22.4 µM [rising, single point].

With `COc1ccc(S(=O)(=O)N2CCCOC2CNC(=O)C(=O)NCCCn2ccnc2)cc1` (stereo not given), the AC50 under setting [1] was 0.00316 µM [rising, full curve, poor fit].

For `CCc1ccc(NC(=S)NNC(=O)c2ccccc2OC(F)F)cc1`, the AC50 reads like this: under setting [1], 17.8 µM [rising, single point]; under setting [2], 14.1 µM [rising, partial curve].

For `COC(=O)c1ccccc1NC(=O)C12CC3CC(C1)CC(n1cnc(Cl)n1)(C3)C2`, the AC50 under setting [2] is 25.1 µM [rising, single point].
